No constants are given. Whether binding was seen depends on the method and setting. Binding seen in cells or lysates may run through a third protein.
Key:
[1] = molecular target: T1, TGF-β type I receptor (TβRI), endogenous (human (endogenous in HEK-293)) (UniProt P36897); assay: co-IP; endogenous proteins of HEK-293 cells; reciprocal IP with anti-HILI or anti-Hsp90, Western blotting
T1 sequence: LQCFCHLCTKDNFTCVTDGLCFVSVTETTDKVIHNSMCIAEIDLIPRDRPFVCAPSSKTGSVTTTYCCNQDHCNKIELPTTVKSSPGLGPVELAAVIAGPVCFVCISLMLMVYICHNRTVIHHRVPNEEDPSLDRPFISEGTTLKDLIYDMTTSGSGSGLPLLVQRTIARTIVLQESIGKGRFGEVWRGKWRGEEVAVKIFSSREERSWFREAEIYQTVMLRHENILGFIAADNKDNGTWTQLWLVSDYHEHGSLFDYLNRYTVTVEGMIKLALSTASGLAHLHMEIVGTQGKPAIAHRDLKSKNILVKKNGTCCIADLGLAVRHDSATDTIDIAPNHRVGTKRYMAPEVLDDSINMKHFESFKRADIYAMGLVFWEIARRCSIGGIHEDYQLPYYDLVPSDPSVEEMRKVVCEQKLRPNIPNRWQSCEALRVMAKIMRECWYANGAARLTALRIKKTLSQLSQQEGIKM

Amino acid sequences for entries named in this document (tags omitted). Residues count along the entry.
UniProt P37173, residues 23-567: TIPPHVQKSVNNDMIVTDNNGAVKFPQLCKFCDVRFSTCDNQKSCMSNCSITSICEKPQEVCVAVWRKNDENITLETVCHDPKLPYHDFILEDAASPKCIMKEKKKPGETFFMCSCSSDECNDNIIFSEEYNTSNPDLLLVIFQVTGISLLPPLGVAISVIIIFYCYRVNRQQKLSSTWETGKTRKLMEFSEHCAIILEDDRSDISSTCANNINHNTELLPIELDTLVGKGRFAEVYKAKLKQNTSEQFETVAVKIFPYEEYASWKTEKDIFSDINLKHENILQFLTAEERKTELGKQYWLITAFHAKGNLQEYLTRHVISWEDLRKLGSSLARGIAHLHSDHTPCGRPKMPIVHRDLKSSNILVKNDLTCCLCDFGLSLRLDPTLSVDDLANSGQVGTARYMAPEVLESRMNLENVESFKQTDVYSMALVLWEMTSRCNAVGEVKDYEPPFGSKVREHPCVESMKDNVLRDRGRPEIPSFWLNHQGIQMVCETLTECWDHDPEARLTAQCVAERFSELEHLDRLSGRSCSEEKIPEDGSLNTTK
UniProt Q8TC59: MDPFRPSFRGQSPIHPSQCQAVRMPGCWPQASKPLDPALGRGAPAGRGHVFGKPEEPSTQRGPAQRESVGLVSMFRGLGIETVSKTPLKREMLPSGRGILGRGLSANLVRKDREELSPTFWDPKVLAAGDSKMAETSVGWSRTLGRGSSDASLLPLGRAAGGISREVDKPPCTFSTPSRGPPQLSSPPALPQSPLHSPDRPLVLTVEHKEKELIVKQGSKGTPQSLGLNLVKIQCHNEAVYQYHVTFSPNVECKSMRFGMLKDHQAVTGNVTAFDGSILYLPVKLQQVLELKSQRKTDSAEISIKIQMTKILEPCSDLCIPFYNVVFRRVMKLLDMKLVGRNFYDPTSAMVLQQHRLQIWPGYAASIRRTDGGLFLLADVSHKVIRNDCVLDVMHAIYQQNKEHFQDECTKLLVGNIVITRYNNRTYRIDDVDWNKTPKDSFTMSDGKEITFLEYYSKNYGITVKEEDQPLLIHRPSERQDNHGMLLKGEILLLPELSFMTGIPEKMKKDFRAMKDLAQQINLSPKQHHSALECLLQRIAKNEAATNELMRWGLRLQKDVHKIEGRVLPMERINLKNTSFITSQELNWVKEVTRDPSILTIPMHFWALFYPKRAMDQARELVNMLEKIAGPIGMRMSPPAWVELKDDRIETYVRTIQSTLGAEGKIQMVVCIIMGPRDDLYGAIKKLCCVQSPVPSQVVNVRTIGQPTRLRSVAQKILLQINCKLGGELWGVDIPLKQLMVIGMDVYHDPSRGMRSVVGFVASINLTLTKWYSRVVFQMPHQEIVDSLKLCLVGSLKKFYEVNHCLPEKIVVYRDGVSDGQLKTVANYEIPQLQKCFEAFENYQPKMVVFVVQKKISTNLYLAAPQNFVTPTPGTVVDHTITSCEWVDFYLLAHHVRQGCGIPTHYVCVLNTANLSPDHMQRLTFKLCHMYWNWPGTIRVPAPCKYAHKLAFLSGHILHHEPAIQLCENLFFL

[2] = molecular target: TGF-β type II receptor (TβRII), endogenous (human (endogenous in HEK-293)) (UniProt P37173); assay: as above

- binding [1]: no binding
- binding [2]: no binding
Substance: endogenous HILI (human PIWIL2) (from UniProt Q8TC59 1-973)
